Experimental data published in PubChem BioAssay AID1688 (National Center for Advancing Translational Sciences (NCATS), 2009).
Out of some 220,000 compounds screened, about 2,400 (1.1%) were called active. Inconclusive results, whose numbers are uncertain, are shown with a selection of clear calls. The call rests on the fitted dose curve; in most records, active means well fitted inhibition curve with a large enough effect; inconclusive means small, poorly fitted or top-dose-only effect, or effect the other way; inactive means no such curve, though single readings can be large or run the other way. Potencies of inconclusive entries are doubtful fits and often do not repeat.

Assay: qHTS Multiplex Assay to Identify Dual Action Probes in a Cell Model of Huntington: Aggregate Formation (GFP); further: nearly all actives have a fitted effect of over 60% in size
Settings: PC12 HttQ103-GFP aggregates, Acumen cytometry, 40 h; activity change, negative = inhibition: at 46.1 µM (top of the series) unless noted
Outline: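 Using laser scanning cytometry, GFP-positive aggregates were counted after lysis of PC12 cells induced with 100 nM tebufenozide to express HTT exon 1 Q103–GFP. Compounds were tested in titration.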
On the % scale 0 is the no-effect control and ±100 the full control effect; potency means the concentration at half of the fitted maximal effect.

Structure (SMILES) | Potency | activity change, negative = inhibition
Cc1cc(C(=O)Nn2c(C3CCCCC3)nc3ccccc3c2=O)ccc1[N+](=O)[O-] | inconclusive: 35.5 µM [inhibitor, single point] | –
C1=C(CCNc2ncnc3nc[nH]c23)CCCC1 | inconclusive: 11.2 µM [inhibitor, single point] | –
CCN1CCN(CCCNC(=O)c2ccc(/C=C3/Sc4ccccc4N(Cc4ccccc4F)C3=O)cc2)CC1 | inconclusive: 14.1 µM [inhibitor, single point] | –
CNC(=O)c1ccc(Oc2ccc(C(=O)NC)cc2)cc1 | inconclusive: 35.5 µM [inhibitor, single point] | –
COc1cc2c(cc1OC)CN(c1nc(CN3CCCCC3)nc3sc4c(c13)CCCC4)CC2 | active: 28.2 µM | –
COc1ccc(C(=O)NCCn2ccc3ccccc32)cc1OC | inconclusive: 6.31 µM [inhibitor, single point] | –
CC1=C(C)CS(=O)N(S(=O)(=O)c2ccccc2)C1 (stereo not given) | inconclusive: 11.2 µM [inhibitor, partial curve, poor fit] | –
S=C(N/N=C/c1ccccc1Cl)Nc1cccc(Cl)c1Cl | – | inactive: 16.9% [at 9.22 µM]
N#Cc1cccc(N=Cc2c(O)ccc3ccccc23)c1 | inconclusive: 35.5 µM [activator, single point] | –
O=C(CSc1ccc(Cl)cc1)N1CCC(c2nc3ccccc3s2)CC1 | inconclusive: 35.5 µM [inhibitor, single point] | –
CCOC(=O)c1[nH]c(COC(=O)CCOc2ccccc2OC)c(C(=O)OCC)c1C | inconclusive: 3.16 µM [inhibitor, single point] | –
Cc1nc(CCNC(=O)COc2ccccc2)cs1 | inconclusive: 1.26 µM [activator, single point] | –
CCOC(=O)N1CCN(C(c2ccc(F)cc2)c2sc3nc(C)nn3c2O)CC1 (stereo not given) | inactive | –
CC(C)C(=O)Nc1ccc(C(=O)c2ccccc2)cc1 | inconclusive: 35.5 µM [inhibitor, single point] | –
COc1cc(OC)cc(C(=O)NC2CCN(Cc3nnnn3Cc3ccc(F)cc3)CC2)c1 | inconclusive: 0.398 µM [activator, partial curve] | –
CCOC(=O)/C(=N\Nc1ccc(Cl)cc1)c1csc(Nc2ccccc2)n1 | inconclusive: 35.5 µM [inhibitor, single point] | –
Cc1scc(C(=O)N/N=C/c2ccc(OCC(C)C)cc2)c1C | inconclusive: 14.1 µM [inhibitor, single point] | –
O=C(CCC(=O)N1CCN(C(=O)c2ccco2)CC1)c1ccc(F)cc1 | inactive | –
COc1ccc(OCc2nnc(SCC(=O)N3CCOCC3)o2)cc1 | – | inactive: -17.6% [at 9.22 µM]
Cc1ccc(-c2nnc(SCC(=O)N3CCOCC3)nc2-c2ccc(C)cc2)cc1 | inactive | –
CCOC(=O)c1cc(-c2cccs2)nn1CCC#N | inactive | –
CCOC(=O)C1CCCN(S(=O)(=O)c2ccc(C)cc2)C1 (stereo not given) | inactive | –
CCn1c(-c2cc(C3CC3)nc3ccccc23)n[nH]c1=S | inconclusive: 11.2 µM [inhibitor, single point] | –

Complete entries as entered above:
CCN1CCN(CCCNC(=O)c2ccc(/C=C3/Sc4ccccc4N(Cc4ccccc4F)C3=O)cc2)CC1 is entered as Potency: inconclusive: 14.1 µM [inhibitor, single point]
CCOC(=O)c1cc(-c2cccs2)nn1CCC#N is entered as Potency: inactive
CCn1c(-c2cc(C3CC3)nc3ccccc23)n[nH]c1=S is entered as Potency: inconclusive: 11.2 µM [inhibitor, single point]

Next results.

Structure (SMILES) | Potency | activity change, negative = inhibition
COc1cccc(C(=O)NC2CCN(C(=O)N3c4ccccc4Sc4ccccc43)CC2)c1 | inconclusive: 35.5 µM [inhibitor, single point] | –
CC1(C)Cc2c(C#N)c(SCCOc3ccccc3)nc(N3CCOCC3)c2CO1 | inconclusive: 22.4 µM [inhibitor, single point] | –
CCCn1c2c(c(O)c(C(=O)Nc3nccs3)c1=O)CCCC2 | inconclusive: 35.5 µM [inhibitor, single point] | –
Cc1ccccc1-c1nn(-c2ccc(F)cc2F)cc1CNCCCN(C)C | inconclusive: 3.55 µM [inhibitor, partial curve, poor fit] | –
COC(=O)c1ccc(NC(=S)NCCC2=CCCCC2)cc1 | inactive | –
Cc1c(/C=N/NC(=O)CNc2ccccc2)c2ccccn2c1C(=O)c1ccc(Cl)cc1 | inconclusive: 5.62 µM [inhibitor, single point] | –
COc1cc(S(=O)(=O)N2CCN(c3ccccc3F)CC2)ccc1Cl | inconclusive: 35.5 µM [inhibitor, single point] | –
Cc1nnc(SCC(=O)Nc2c(C)n(C)n(-c3ccccc3)c2=O)n1Cc1ccccc1 | inactive | –
COc1ccccc1-c1ccc(SCc2cccc(C)c2)nn1 | active: 22.4 µM | –
O=C(O)CCC(=O)Nc1sc2c(c1C(=O)Nc1ccccc1)CCCCC2 | inconclusive: 10 µM [inhibitor, partial curve, poor fit] | –
COc1ccc(-c2nc(NC(=O)c3[nH]c(C)c(C(C)=O)c3C)sc2C)cc1 | inconclusive: 35.5 µM [inhibitor, single point] | –
O=C(O)CCC1COc2ccccc2O1 (stereo not given) | inconclusive: 0.562 µM [inhibitor, full curve] | –
O=C(c1ccc(Cl)cc1)c1c[nH]c(C(=O)NNc2ccccc2)c1 | inconclusive: 35.5 µM [activator, partial curve, poor fit] | –
N#CC1=C(N)NC(SCC(=O)c2ccc(Br)cc2)=C(C#N)C12CCCCC2 | inconclusive: 15.8 µM [inhibitor, single point] | –
CCN(CC)C(=O)c1cc2cc([N+](=O)[O-])ccc2s1 | inactive | –
Cc1cc(C)nc(CC(N)=O)n1 | inconclusive: 4.47 µM [inhibitor, single point] | –
c1csc(-c2cn3ccc4ccccc4c3n2)c1 | – | inactive: -1.2% [at 9.22 µM]
O=C(O)CSc1ncnc2sc3c(c12)CCC3 | inconclusive: 35.5 µM [inhibitor, single point] | –
COc1ccc(NC(=S)N(CCCN2CCOCC2)Cc2cn(C)c3ccccc23)cc1OC | inactive | –
COc1ccc(-c2ccc(C3C(C#N)=C(N)Oc4n[nH]c(C)c43)o2)cc1 (stereo not given) | inactive | –
COc1cc(OC)cc(C(=O)N[C@H](C(=O)OCC(=O)NC(C)c2ccccc2)C(C)C)c1 (stereo not given in full) | inconclusive: 7.94 µM [activator, partial curve, poor fit] | –
Clc1cccc(CN2COc3c(cc(Cl)c4cccnc34)C2)c1 | inconclusive: 3.16 µM [inhibitor, full curve] | –
